This is an account of results in article PMC3832391.

This test concerns the target T1, human Rh-associated glycoprotein (hRhAG) (human) (UniProt Q02094).
T1 sequence: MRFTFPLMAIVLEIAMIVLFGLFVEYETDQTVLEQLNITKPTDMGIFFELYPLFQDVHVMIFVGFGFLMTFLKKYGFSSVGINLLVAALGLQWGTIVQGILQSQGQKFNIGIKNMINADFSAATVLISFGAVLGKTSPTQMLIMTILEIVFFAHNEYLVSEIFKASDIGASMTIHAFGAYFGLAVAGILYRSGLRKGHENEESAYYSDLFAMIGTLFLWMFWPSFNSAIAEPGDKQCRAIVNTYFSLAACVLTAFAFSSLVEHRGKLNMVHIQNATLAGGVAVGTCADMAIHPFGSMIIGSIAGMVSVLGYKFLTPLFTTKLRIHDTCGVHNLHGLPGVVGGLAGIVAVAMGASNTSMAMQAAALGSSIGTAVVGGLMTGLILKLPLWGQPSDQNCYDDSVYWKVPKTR
Description: co-IP; anti-hRhAG LA18.18 on Protein G Sepharose beads; erythrocyte ghosts of TG_hRHAG_68.08 and WT mice solubilised in 10 mM Tris/HCl pH 7.4, 150 mM NaCl, 0.5 mM CaCl2, 0.5 mM MgCl2, 1% Triton X100; pre-cleared, incubated overnight at 4°C, washed 3 times; immunoblot with MPC8 (anti-Rh), anti-mRhag or LA18.18. On the technique in general: In western blotting, separated proteins are transferred to a membrane and probed.

These are yes or no findings as the source states them, for the method shown. In cells and extracts the contact can be indirect. Some entries that bind do so weakly or less than the wild type.

B1: mouse Rhag glycoprotein (mRhag) (protein, UniProt Q9QUT0 1-438)
chain: MRFKFPLMAISLEVAMIVLFGLFVEYETPQNASQKNASHQNASQQGNTSSSAKKDQFFQLYPLFQDVHVMIFVGFGFLMTFLKKYGFSGVGFNLFLAALGLQWGTIMQGLLHSHGKEFHFGIYNMINADFSTATVLISFGAVLGKTSPIQMLIMTILEIAVFAGNEYLVTELFEASDTGASMTIHAFGAYFGLAVAGVLYRPGLRCEHPNDESVYHSDLFAMIGTLFLWIFWPSFNSAIADPGDHQYRAIVNTYMSLAACVITAYALSSLVERRGRLDMVHIQNATLAGGVAVGTCADMEIPLYAAMTIGSIAGIISVLGYKFFSPLLANKLMIHDTCGVHNLHGLPGVFGGLASIVAISWGMSTASMAMQAAALGSSIGSAIVGGLLTGLILKLPIWNQPPDEYCYDDSVSWKVPKFRELDNRFFQHANHNHVEHEV
As to B1, the binding result is reported as “no binding”.

B2: mouse Rh protein (mRh) (protein, UniProt Q8CF94 1-418)
chain: MGSKYPRSLRCCLPLWALELQTAFSLLFCFFIPHDTAQVDHRFMASYQVLRNLTLMAALGFGFLSSSFRRHSWSSVAFNLFMLALGVQGTILLDHFLGQVLQWNKINNLSSIQIATMSTLPVLISAGAVLGKVNLVQLTVMVLMEAMAFGAIRFADEKVFKMTEHIIMMHGHVFGAYFGLTVAWWLSRSLPRRVGENAQTEKVQMATSSSLFAMLGTLFLWIFWPAINSALLEGTKKRNAVFNTYYALAVSAVTATSMSALSHPQGKINMVHIHNAVLAGGVAVGAPGCLISSPWISMVLGLIAGLISIWGAKCPRACLNHMLQNSSGIHYTFGLPGLLGALTYYCLQIVTEPKSSDLWIITQTVTHIGALSFAVAMGMVTGLLTGCLLSVRVWRAPHAAKYFDDQTFWEFPHLAVGF
Turning to B2, the binding result is listed as “binds”.
